Values of other authors as cited in patent US6703229B2, “Aryl propenal double bond reductase” (Washington State University Research Foundation, priority 2000, dated 2004).
At least one compound was matched to its structure with a doubt left.

Conditions: cited from earlier work

COc1cc([C@H]2OC[C@H]3[C@@H]2CO[C@@H]3c2cc(OC)c(O[C@@H]3O[C@H](CO)[C@@H](O)[C@H](O)[C@H]3O)c(OC)c2)cc(OC)c1O [syringaresinol β-D-glucoside]
effect on cardiovascular activity: enhance cardiovascular activity
